Reference: patent US20140031355A1, “HETEROCYCLIC COMPOUNDS AND THEIR USES” (Amgen Inc., priority 2010, published 2014)
pIC50: −log10 of the molar value. Where two headings read alike, the source gives them in different places. At least one structure is not confirmed: it was looked up by name or label, or the drawing left a doubt.

Assays:
neutrophil migration = conditions: cited from earlier work
[1] = test system: neutrophil superoxide release; conditions: cited from earlier work
Class I PI 3-kinases = conditions: cited from earlier work
[2] = test system: MDA MB468 Forkhead-DiversaGFP Cells; assay: Forkhead Translocation Assay; type: cell-based; conditions: control, 10 uM
CHO-IR-AKT1-EGFP Cells = assay: AKT Membrane Ruffling Assay; type: cell-based; conditions: control, 10 uM
U2OS EGFP-2×FYVE Cells = assay: Class III PI(3)P Assay; type: cell-based; conditions: control, 10 uM

| SMILES | neutrophil migration (neutrophil migration) | superoxide release [1] | pIC50 (Class I PI 3-kinases; read-out: IC50 values against each of these PI 3-kinases) | Forkhead localisation [2] | pIC50 (Class I PI 3-kinases; read-out: IC50 values against each of the various Class I PI 3-kinases) | AKT localisation (CHO-IR-AKT1-EGFP Cells) | PI(3)P (U2OS EGFP-2×FYVE Cells) |
| --- | --- | --- | --- | --- | --- | --- | --- |
| O=c1cc(N2CCOCC2)oc2c(-c3ccccc3)cccc12 [LY294002] | block | block | ~6.00 | – | – | – | – |
| COC[C@H]1OC(=O)c2coc3c2[C@@]1(C)C1=C(C3=O)[C@@H]2CCC(=O)[C@@]2(C)C[C@H]1OC(C)=O [wortmannin] | block | block | – | nuclear | 8.00 to 9.00 | cytoplasmic | depleted from endosomes |
